According to publication PMC4778017:
Results are given in words; binding and its absence hold for the method and conditions named. For some of these results: Binding calls can cover weak binding; strength is not graded here. Values belong to the molecule of their own block, whether it stands above or below them.

Columns and labels:
[1] = molecular target: T1, full-length mouse BetaM (ATP1B4), GAL4 DNA binding domain bait (mouse) (UniProt Q99ME6); assay: two-hybrid; GAL4 yeast two-hybrid screen of a pretransformed 17 day mouse embryo cDNA library (Y187) with full-length mouse BetaM bait in AH109; mating, SD/-Trp/-Leu/-His 5 days at 30 °C, then SD/-Ade/-Trp/-Leu/-His with α-X-Gal; confirmed by co-transformation and mating with isolated prey plasmids
T1 sequence: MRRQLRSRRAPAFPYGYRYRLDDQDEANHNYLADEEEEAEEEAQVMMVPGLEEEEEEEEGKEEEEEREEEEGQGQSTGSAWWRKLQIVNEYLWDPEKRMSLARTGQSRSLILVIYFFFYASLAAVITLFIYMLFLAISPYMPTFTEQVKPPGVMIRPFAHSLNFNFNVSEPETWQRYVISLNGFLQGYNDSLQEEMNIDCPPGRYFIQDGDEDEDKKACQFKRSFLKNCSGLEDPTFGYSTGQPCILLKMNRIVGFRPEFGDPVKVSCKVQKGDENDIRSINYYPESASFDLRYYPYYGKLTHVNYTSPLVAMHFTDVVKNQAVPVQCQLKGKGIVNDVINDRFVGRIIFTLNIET

chicken BetaM (chicken) = molecular target: T2, chicken BetaM (chicken) (UniProt Q2HZ96); assay: two-hybrid; chicken homologs of the interactors tested cross-wise with chicken and mouse BetaM and the mouse interactors, by the criteria of the library screening
T2 sequence: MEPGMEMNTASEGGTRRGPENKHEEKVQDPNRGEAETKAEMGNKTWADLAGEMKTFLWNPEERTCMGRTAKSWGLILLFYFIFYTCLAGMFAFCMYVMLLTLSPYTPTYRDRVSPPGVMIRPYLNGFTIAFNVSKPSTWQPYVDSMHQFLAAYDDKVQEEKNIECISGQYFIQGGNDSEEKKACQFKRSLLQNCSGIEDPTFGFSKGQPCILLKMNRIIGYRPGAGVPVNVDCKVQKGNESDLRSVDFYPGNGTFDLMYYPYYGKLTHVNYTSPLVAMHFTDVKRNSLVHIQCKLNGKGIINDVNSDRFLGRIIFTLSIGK

[2] = molecular target: N-terminal domain of BetaM (mouse) (UniProt Q99ME6); assay: two-hybrid; pairwise two-hybrid tests of truncated forms of BetaM with the interactors (named as two-hybrid test for SKIP in Figure 1; the method is not named for the other interactors)

binding [1]: binds
Molecule: Heme oxidase 1/HMOX1 prey, residues 200-389 as printed (N-term. truncated) (domain or fragment)

binding [2]: binds
B1: Heme oxidase 2/HMOX2 prey (protein, UniProt O70252 1-315)
chain: MSSEVETSEGVDESEKNSMAPEKENHTKMADLSELLKEGTKEAHDRAENTQFVKDFLKGNIKKELFKLATTALYFTYSALEEEMDRNKDHPAFAPLYFPTELHRKAALIKDMKYFFGENWEEQVKCSEAAQKYVDRIHYVGQNEPELLVAHAYTRYMGDLSGGQVLKKVAQRALKLPSTGEGTQFYLFEHVDNAQQFKQFYRARMNALDLNLKTKERIVEEANKAFEYNMQIFSELDQAGSMLARETLEDGLPVHDGKGDIRKCPFYAAQPDKGTLGGSNCPFQTTVAVLRKPSLQLILAASVALVAGLLAWYYM

binding [2]: binds
B2: PHF3 prey, residues 168-397 (N-term. truncated) (domain or fragment, UniProt B2RQG2 168-397)
chain: SKVGVKPAERCQGKEEVYASLKSEHPKESRRSGRHAEQMDVAPEVSASSVDSSVSSCAGMKEEAEFDPKHACNNQGEVNVPSPELDCPLLSETSASVEEKNIEALMECKAKTNSSPLFKFPVREDEQSDLVSGELNDTIEGKDAGGKPDQESEEVKFPCEGDQTAEEPESSDVSSDSACANKNKAEKNEGAECHLELKNTVDIVDKPENSPQRNELETLGYGEDTESNDA

Second part, the molecule before the results:

Molecule: ERGIC3 prey
binding [1]: binds

Molecule: LAP1/TOR1AIP2 prey, residues 96-520 (N-term. truncated) (domain or fragment)
binding [1]: binds

Molecule: Syne-1/nesprin-1 prey, residues 566-949 (KASH domain containing) (domain or fragment)
binding [1]: binds

Molecule: chicken SKIP
binding (chicken BetaM (chicken)): no binding
